Results reported in publication PMC4284807, “Activation of RidA chaperone function by N-chlorination” (Nature Communications, 2014).
No constants are given. Whether binding was seen depends on the method and setting. Binding seen in cells or lysates may run through a third protein. Here binding means that the protein was enriched with, or labelled near, the bait; the list need not be complete. Where a sequence is shown, tags or fusion partners need not be part of it.

Chains of the proteins cited; added tags and fusions are not shown.
UniProt P0ACD4: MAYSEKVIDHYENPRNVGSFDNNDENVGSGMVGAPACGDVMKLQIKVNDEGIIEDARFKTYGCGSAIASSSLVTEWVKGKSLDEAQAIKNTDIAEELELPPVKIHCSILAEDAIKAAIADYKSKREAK
UniProt P0A850: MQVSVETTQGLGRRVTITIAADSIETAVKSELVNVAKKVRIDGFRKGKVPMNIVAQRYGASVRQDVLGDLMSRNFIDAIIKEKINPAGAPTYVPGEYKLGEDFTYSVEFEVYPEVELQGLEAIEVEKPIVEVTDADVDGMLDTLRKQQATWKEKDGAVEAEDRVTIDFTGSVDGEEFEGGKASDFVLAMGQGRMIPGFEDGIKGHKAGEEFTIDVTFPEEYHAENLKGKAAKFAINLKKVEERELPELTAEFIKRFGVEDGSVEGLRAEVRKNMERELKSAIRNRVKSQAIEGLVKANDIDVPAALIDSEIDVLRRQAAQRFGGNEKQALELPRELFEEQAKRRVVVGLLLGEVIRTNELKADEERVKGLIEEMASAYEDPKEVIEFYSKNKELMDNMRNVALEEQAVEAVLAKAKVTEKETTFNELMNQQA

T1: His-tagged RidA_(HOCl) (E. coli) (UniProt P0AF93)
T1 sequence (chain, treated with a 10-fold excess of HOCl (N-chlorination; positions not mapped)): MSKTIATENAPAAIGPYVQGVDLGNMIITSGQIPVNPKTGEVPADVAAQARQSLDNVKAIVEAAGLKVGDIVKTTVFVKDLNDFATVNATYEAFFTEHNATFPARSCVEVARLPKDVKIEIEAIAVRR

B1: YifE (protein, UniProt P0ADN2 1-112)
chain: MAESFTTTNRYFDNKHYPRGFSRHGDFTIKEAQLLERHGYAFNELDLGKREPVTEEEKLFVAVCRGEREPVTEAERVWSKYMTRIKRPKRFHTLSGGKPQVEGAEDYTDSDD
B2: RhmD (protein, UniProt P77215 1-401)
chain: MTLPKIKQVRAWFTGGATAEKGAGGGDYHDQGANHWIDDHIATPMSKYRDYEQSRQSFGINVLGTLVVEVEAENGQTGFAVSTAGEMGCFIVEKHLNRFIEGKCVSDIKLIHDQMLSATLYYSGSGGLVMNTISCVDLALWDLFGKVVGLPVYKLLGGAVRDEIQFYATGARPDLAKEMGFIGGKMPTHWGPHDGDAGIRKDAAMVADMREKCGEDFWLMLDCWMSQDVNYATKLAHACAPYNLKWIEECLPPQQYESYRELKRNAPVGMMVTSGEHHGTLQSFRTLSETGIDIMQPDVGWCGGLTTLVEIAAIAKSRGQLVVPHGSSVYSHHAVITFTNTPFSEFLMTSPDCSTMRPQFDPILLNEPVPVNGRIHKSVLDKPGFGVELNRDCNLKRPYSH
B3: uracil phosphoribosyltransferase Upp (protein, UniProt P0A8F0 1-208)
chain: MKIVEVKHPLVKHKLGLMREQDISTKRFRELASEVGSLLTYEATADLETEKVTIEGWNGPVEIDQIKGKKITVVPILRAGLGMMDGVLENVPSARISVVGMYRNEETLEPVPYFQKLVSNIDERMALIVDPMLATGGSVIATIDLLKKAGCSSIKVLVLVAAPEGIAALEKAHPDVELYTASIDQGLNEHGYIIPGLGDAGDKIFGTK
B4: HupB (protein, UniProt P0ACF4 1-90)
chain: MNKSQLIDKIAAGADISKAAAGRALDAIIASVTESLKEGDDVALVGFGTFAVKERAARTGRNPQTGKEITIAAAKVPSFRAGKALKDAVN

Target: T1, His-tagged RidA_(HOCl) (E. coli)
Test: affinity purification with mass spectrometry; as the pull-down; pooled and concentrated washing fractions four to six (with or without DTT), tryptic digest, nanoUPLC and Synapt G2-S MS^E; only the target purified

| binding | Molecule |
| --- | --- |
| binds | FkbA (E. coli (endogenous in MG1655 ΔridA)) |
| binds | iron sulfur cluster assembly scaffold protein IscU (from UniProt P0ACD4 1-128) |
| binds | thioredoxin 1 (TrxA) (from UniProt P0AA25 1-109) |
| binds | trigger factor (from UniProt P0A850 1-432) |
| binds | B1 |
| binds | B2 |
| binds | B3 |
| binds | B4 |
